Experimental data: the supplement of paper PMC6411743
± gives the standard deviation of the averaged measurements. This is a selection; strong and weak results do not stand in their true shares. Small differences around the control level are noise.

The chains behind the UniProt entries cited, without tags or fusion partners. Where a name states a change or a piece, a line headed by the entry shows the natural chain unless it says otherwise.
UniProt Q14527: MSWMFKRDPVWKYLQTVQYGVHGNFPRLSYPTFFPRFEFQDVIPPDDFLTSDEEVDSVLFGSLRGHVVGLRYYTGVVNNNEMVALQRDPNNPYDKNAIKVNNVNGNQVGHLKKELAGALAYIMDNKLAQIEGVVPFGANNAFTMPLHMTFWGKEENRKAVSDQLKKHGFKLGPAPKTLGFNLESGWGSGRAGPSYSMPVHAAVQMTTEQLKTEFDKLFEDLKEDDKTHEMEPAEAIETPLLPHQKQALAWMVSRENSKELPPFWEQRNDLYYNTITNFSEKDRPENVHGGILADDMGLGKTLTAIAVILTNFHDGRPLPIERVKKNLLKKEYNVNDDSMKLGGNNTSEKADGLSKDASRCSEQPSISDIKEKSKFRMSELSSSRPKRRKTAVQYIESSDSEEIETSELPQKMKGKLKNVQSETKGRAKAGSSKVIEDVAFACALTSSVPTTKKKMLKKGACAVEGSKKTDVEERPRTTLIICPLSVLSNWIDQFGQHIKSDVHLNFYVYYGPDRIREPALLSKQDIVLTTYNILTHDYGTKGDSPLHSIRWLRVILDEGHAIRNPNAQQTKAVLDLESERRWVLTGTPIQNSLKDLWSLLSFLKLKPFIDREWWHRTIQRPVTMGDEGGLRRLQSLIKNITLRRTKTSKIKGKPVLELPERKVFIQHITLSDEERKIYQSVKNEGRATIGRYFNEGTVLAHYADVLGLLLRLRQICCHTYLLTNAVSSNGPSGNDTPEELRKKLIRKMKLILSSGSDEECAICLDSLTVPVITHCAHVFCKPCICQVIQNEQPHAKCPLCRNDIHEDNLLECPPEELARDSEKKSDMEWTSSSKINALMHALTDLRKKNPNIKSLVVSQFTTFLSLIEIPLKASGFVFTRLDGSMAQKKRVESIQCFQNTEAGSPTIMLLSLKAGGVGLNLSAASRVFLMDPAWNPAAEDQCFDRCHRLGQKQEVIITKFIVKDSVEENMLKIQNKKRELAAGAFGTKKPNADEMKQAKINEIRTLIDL
UniProt Q13098: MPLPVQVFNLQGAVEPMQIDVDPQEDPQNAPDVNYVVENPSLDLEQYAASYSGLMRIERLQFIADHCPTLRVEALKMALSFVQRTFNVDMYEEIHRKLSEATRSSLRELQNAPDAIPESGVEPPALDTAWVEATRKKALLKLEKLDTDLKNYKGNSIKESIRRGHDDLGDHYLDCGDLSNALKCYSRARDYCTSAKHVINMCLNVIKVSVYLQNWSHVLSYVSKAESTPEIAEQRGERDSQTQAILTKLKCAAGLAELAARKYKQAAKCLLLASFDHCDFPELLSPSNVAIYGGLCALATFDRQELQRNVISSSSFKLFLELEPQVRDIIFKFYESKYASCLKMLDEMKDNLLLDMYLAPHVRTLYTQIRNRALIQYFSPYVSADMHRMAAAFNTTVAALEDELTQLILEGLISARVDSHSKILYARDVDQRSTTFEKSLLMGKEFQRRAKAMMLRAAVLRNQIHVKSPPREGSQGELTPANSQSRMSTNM
UniProt Q14839: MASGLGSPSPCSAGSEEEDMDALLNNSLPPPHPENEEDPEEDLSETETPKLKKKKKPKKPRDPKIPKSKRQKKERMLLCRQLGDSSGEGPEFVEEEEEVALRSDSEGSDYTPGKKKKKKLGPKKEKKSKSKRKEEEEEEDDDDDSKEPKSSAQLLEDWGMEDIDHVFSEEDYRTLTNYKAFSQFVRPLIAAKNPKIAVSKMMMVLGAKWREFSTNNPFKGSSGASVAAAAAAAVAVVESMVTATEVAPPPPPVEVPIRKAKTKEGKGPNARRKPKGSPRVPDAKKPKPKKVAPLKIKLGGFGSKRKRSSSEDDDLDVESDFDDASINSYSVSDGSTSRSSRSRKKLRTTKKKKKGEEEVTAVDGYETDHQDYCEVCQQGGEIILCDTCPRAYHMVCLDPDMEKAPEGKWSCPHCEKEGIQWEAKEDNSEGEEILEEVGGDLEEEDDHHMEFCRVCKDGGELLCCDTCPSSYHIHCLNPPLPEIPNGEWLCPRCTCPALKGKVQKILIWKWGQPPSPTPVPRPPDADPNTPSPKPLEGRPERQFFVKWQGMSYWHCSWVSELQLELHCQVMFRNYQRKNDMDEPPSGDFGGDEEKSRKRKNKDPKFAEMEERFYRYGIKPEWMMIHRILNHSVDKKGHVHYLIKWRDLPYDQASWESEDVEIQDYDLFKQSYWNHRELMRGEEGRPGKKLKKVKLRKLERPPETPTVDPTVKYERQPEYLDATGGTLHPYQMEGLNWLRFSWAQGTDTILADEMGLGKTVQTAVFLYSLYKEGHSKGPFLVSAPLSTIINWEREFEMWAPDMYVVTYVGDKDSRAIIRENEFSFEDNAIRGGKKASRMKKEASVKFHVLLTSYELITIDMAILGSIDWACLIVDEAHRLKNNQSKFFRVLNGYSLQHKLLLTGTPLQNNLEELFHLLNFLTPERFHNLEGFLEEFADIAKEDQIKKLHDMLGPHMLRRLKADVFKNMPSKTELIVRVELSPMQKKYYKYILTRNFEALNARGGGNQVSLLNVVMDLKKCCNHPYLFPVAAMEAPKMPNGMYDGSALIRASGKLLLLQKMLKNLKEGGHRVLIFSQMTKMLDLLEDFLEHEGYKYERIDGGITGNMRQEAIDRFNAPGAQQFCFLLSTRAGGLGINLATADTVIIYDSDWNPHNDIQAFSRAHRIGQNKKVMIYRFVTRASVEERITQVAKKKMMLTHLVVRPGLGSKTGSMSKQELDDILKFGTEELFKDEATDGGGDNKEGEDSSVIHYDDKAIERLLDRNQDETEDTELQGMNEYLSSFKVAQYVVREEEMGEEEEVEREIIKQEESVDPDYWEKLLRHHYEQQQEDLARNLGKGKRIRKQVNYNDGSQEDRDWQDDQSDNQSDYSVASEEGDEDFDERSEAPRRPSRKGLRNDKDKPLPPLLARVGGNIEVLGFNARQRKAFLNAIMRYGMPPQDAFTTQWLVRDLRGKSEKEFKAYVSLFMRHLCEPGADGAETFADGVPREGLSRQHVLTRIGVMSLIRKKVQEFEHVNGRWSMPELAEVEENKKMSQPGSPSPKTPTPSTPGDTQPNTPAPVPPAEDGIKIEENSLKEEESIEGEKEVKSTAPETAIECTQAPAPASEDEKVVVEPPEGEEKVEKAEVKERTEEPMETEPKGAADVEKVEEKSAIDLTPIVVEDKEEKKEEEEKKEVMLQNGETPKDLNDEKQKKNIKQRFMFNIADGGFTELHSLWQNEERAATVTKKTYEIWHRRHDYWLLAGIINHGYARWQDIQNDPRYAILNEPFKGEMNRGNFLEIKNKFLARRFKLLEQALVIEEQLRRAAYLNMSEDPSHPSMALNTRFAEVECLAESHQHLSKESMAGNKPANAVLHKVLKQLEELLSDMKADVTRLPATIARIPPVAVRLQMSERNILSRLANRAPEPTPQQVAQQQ
UniProt O95139, whole entry: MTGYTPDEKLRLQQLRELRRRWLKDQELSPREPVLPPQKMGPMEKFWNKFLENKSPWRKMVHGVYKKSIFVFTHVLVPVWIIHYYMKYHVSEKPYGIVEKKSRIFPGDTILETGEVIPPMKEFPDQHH
UniProt O75818: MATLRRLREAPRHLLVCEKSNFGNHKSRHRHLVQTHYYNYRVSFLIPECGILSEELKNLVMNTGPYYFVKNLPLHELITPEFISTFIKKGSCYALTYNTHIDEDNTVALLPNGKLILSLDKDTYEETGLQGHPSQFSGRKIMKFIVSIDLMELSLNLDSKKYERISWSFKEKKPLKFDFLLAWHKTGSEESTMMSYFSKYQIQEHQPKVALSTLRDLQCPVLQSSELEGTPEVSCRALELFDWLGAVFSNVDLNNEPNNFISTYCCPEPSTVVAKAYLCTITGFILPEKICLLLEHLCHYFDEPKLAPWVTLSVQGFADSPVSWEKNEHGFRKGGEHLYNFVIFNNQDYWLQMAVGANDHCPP
UniProt P53814: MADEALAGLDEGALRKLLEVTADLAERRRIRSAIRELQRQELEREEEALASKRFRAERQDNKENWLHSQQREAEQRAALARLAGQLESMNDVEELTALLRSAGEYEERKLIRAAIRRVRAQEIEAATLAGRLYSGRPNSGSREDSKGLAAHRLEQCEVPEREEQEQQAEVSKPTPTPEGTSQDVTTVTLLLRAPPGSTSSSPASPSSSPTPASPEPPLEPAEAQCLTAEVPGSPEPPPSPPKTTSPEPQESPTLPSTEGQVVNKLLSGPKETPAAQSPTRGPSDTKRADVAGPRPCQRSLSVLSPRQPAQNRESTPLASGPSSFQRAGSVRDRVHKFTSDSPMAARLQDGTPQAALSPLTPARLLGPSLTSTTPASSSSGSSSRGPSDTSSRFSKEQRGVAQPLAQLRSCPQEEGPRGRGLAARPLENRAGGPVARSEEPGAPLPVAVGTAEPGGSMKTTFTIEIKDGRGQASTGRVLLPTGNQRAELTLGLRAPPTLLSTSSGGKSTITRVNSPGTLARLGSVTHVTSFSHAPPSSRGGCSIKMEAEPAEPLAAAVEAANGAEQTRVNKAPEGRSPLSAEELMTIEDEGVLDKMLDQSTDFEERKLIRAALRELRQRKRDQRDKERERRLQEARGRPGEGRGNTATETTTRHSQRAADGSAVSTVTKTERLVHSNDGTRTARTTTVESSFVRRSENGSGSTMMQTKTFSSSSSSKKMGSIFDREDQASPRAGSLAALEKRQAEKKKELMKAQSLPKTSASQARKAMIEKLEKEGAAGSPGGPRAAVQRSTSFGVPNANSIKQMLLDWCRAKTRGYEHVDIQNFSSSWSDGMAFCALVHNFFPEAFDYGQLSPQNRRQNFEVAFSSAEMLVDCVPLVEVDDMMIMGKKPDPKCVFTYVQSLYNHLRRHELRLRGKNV
UniProt Q00610: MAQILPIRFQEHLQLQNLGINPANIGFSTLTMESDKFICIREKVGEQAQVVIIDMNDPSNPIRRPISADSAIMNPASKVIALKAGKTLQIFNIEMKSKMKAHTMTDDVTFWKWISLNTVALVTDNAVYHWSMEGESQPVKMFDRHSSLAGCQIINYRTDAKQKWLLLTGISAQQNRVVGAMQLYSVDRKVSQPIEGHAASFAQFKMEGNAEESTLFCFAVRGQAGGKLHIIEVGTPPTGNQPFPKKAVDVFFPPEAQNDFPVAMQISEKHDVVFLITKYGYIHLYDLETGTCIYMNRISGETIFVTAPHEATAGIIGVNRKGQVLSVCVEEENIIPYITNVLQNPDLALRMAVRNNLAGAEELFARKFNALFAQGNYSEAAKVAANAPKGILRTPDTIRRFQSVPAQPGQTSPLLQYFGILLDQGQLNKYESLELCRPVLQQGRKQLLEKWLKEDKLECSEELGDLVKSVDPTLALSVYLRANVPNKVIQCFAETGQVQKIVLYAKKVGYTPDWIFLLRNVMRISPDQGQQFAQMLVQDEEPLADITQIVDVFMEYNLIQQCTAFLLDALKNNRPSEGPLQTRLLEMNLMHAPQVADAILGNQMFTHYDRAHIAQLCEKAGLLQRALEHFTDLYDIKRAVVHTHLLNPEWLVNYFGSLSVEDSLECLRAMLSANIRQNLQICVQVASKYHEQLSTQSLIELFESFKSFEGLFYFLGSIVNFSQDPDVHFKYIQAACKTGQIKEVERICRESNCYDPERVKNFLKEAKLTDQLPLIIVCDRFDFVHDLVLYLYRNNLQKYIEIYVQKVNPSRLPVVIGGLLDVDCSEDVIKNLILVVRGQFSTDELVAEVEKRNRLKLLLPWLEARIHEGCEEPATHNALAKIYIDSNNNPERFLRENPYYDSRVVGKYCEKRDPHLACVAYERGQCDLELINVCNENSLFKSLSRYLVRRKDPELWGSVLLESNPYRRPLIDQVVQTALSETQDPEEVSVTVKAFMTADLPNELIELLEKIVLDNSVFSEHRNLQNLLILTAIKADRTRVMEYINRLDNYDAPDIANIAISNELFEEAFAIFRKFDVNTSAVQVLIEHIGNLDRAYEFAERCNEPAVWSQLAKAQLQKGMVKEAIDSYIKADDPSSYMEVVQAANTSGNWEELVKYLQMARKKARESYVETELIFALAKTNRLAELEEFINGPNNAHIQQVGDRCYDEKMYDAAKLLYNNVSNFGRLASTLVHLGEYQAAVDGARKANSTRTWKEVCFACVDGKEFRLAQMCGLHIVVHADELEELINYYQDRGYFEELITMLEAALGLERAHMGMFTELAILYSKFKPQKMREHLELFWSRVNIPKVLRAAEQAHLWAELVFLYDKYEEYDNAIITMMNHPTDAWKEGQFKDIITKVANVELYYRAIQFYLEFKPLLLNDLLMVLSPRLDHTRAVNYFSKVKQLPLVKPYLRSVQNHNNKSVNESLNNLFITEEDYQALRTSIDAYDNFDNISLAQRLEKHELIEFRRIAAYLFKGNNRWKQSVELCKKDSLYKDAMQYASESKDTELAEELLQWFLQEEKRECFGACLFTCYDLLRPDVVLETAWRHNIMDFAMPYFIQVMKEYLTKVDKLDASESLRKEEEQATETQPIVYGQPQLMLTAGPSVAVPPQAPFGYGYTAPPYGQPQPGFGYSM

Compound: Nc1ncnc2c1ncn2[C@@H]1O[C@H](COP(=O)(O)OP(=O)(O)OP(=O)(O)O)[C@@H](O)[C@H]1O [adenosine triphosphate]
Test: NP40-soluble protein abundance relative to vehicle (solubility fold change) (ratio); higher = more soluble protein in presence of ATP
Procedure, shortened: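 Eight concentrations, 0.1 to 10 mM, were tested on Jurkat crude lysate for 10 min at room temperature and then 3 min at 37 °C, in three independent experiments. The lysate was solubilised with 0.8% NP40 and benzonase, ultracentrifuged, and the supernatant TMT-labelled for LC-MS/MS. Each value is the fold change against the detergent-processed vehicle in its own replicate, from vsn-normalised intensities.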

## A0A0A0MSS3|Q5T6P1 and related entries (UniProt Q8ND83)
concentration: 0.1mM
  NP40-soluble protein abundance: 0.971 ± 0.031
concentration: 0.5mM
  NP40-soluble protein abundance: 0.948 ± 0.048

## A0A0A6YYG7|Q6IBW4 and related entries (UniProt Q6IBW4)
concentration: 0.1mM
  NP40-soluble protein abundance: 1 ± 0.057
concentration: 0.5mM
  NP40-soluble protein abundance: 1.04 ± 0.068

## A0A0C4DFM0|G3V4T6 and related entries (UniProt O43708)
concentration: 0.1mM
  NP40-soluble protein abundance: 0.977 ± 0.041
concentration: 0.5mM
  NP40-soluble protein abundance: 0.932 ± 0.035

## A0A0C4DGA6|Q14527 (UniProt Q14527)
concentration: 0.1mM
  NP40-soluble protein abundance: 1.05 ± 0.036
concentration: 0.5mM
  NP40-soluble protein abundance: 1.08 ± 0.055

## A0A096LP07|A0A096LPJ3|A8K070 and related entries (UniProt Q13098)
concentration: 0.1mM
  NP40-soluble protein abundance: 0.943 ± 0.019
concentration: 0.5mM
  NP40-soluble protein abundance: 0.953 ± 0.059

## A0A0C4DGC9|Q8TDR2 (UniProt Q8TDR2)
concentration: 0.1mM
  NP40-soluble protein abundance: 1.07 ± 0.096
concentration: 0.5mM
  NP40-soluble protein abundance: 1.11 ± 0.071

## A0A087WUC6|E9PI68 and related entries (UniProt Q15005)
concentration: 0.1mM
  NP40-soluble protein abundance: 0.969 ± 0.056
concentration: 0.5mM
  NP40-soluble protein abundance: 0.962 ± 0.035

## A0A0C4DGG9|Q14839 and related entries (UniProt Q14839)
concentration: 0.1mM
  NP40-soluble protein abundance: 0.998 ± 0.032
concentration: 0.5mM
  NP40-soluble protein abundance: 1.04 ± 0.036

## A0A087WUB9|Q8WYA6 (UniProt Q8WYA6)
concentration: 0.1mM
  NP40-soluble protein abundance: 0.988 ± 0.0086
concentration: 0.5mM
  NP40-soluble protein abundance: 1.01 ± 0.024

## A0A0A0MT72|Q9BSQ5 and related entries (UniProt Q9BSQ5)
concentration: 0.1mM
  NP40-soluble protein abundance: 1.01 ± 0.028
concentration: 0.5mM
  NP40-soluble protein abundance: 1.04 ± 0.052

## A0A087WUS0|E7ETK0 and related entries (UniProt P62847)
concentration: 0.1mM
  NP40-soluble protein abundance: 0.877 ± 0.09
concentration: 0.5mM
  NP40-soluble protein abundance: 0.861 ± 0.12

## A0A0A0MTD9|A0A0A0MTE6|A0A0B4J1S7|E9PMT0 and related entries (UniProt Q9Y2R2)
concentration: 0.1mM
  NP40-soluble protein abundance: 1.01 ± 0.043
concentration: 0.5mM
  NP40-soluble protein abundance: 1.07 ± 0.054

## A0A0C4DG78|M0R3C6 and related entries (UniProt Q8TBC5)
concentration: 0.1mM
  NP40-soluble protein abundance: 0.886 ± 0.056
concentration: 0.5mM
  NP40-soluble protein abundance: 0.849 ± 0.046

## A0A0A0MSI2|B3KPJ4 and related entries (UniProt Q8IXK0)
concentration: 0.1mM
  NP40-soluble protein abundance: 0.937 ± 0.081
concentration: 0.5mM
  NP40-soluble protein abundance: 0.99 ± 0.081

## A0A0A0MTP3|Q99550 and related entries (UniProt Q99550)
concentration: 0.1mM
  NP40-soluble protein abundance: 0.914 ± 0.02
concentration: 0.5mM
  NP40-soluble protein abundance: 0.923 ± 0.079

## A0A087X011|E9PES4 and related entries (UniProt Q9Y496)
concentration: 0.1mM
  NP40-soluble protein abundance: 1.04 ± 0.027
concentration: 0.5mM
  NP40-soluble protein abundance: 1.04 ± 0.018

## A0A087WZX2|O95139 (UniProt O95139)
concentration: 0.1mM
  NP40-soluble protein abundance: 0.852 ± 0.19
concentration: 0.5mM
  NP40-soluble protein abundance: 0.8 ± 0.24

## A0A087X1N3|O75818 and related entries (UniProt O75818)
concentration: 0.1mM
  NP40-soluble protein abundance: 1.06 ± 0.068
concentration: 0.5mM
  NP40-soluble protein abundance: 1.09 ± 0.039

## A0A087WVP4|A0A087X1R1|P53814 and related entries (UniProt P53814)
concentration: 0.1mM
  NP40-soluble protein abundance: 1 ± 0.074
concentration: 0.5mM
  NP40-soluble protein abundance: 1.03 ± 0.14

## A0A087WVQ6|Q00610 and related entries (UniProt Q00610)
concentration: 0.1mM
  NP40-soluble protein abundance: 1.08 ± 0.071
concentration: 0.5mM
  NP40-soluble protein abundance: 1.13 ± 0.053
